Reference: the supplement of paper PMC7661543
Differences between knockout arms are mostly noise.

Tested on: BT-20
Experiment: relative cell number vs DMSO control (72 h) (% of DMSO); higher = less growth inhibition (more cells)
Protocol: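 QMAP-Seq: a pool of 5 breast cancer cell lines (ZR-75-1, SKBR3, HCC-38, MDA-MB-231, BT-20), each carrying 12 doxycycline-inducible Cas9 sgRNA perturbations (11 knockouts plus non-targeting sgNT), was treated with compounds for 72 h at four 10-fold doses (10 nM-10 uM or 1 nM-1 uM range). Barcodes were amplified and sequenced, and cell number was interpolated from 293T spike-in standard curves. The result is expressed as % of the median of DMSO wells. Two biological replicates.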

CN(C)CC[C@H](CSc1ccccc1)Nc1ccc(S(=O)(=O)NC(=O)c2ccc(N3CCN(Cc4ccccc4-c4ccc(Cl)cc4)CC3)cc2)cc1[N+](=O)[O-] [ABT737]
Conditions | relative cell number
sgRNA knockout: sgATF3, 10 nM | 112
sgRNA knockout: sgATF3, 100 nM | 95.8
sgRNA knockout: sgATF3, 1000 nM | 86.6
sgRNA knockout: sgATF3, 10000 nM | 85.2
sgRNA knockout: sgATF4, 10 nM | 91.4
sgRNA knockout: sgATF4, 100 nM | 96.8
sgRNA knockout: sgATF4, 1000 nM | 99.3
sgRNA knockout: sgATF4, 10000 nM | 80.9
sgRNA knockout: sgATF6, 10 nM | 99
sgRNA knockout: sgATF6, 100 nM | 89.7
sgRNA knockout: sgATF6, 1000 nM | 91.8
sgRNA knockout: sgATF6, 10000 nM | 77.6
sgRNA knockout: sgATG7, 10 nM | 109
sgRNA knockout: sgATG7, 100 nM | 90.2
sgRNA knockout: sgATG7, 1000 nM | 99.28
sgRNA knockout: sgATG7, 10000 nM | 71.9
sgRNA knockout: sgERN1, 10 nM | 91.8
sgRNA knockout: sgERN1, 100 nM | 97.3
sgRNA knockout: sgERN1, 1000 nM | 87.55
sgRNA knockout: sgERN1, 10000 nM | 78.6
sgRNA knockout: sgHSF1, 10 nM | 85.6
sgRNA knockout: sgHSF1, 100 nM | 81.5
sgRNA knockout: sgHSF1, 1000 nM | 96.01
sgRNA knockout: sgHSF1, 10000 nM | 87.7
sgRNA knockout: sgHSF2, 10 nM | 96.3
sgRNA knockout: sgHSF2, 100 nM | 102.8
sgRNA knockout: sgHSF2, 1000 nM | 93.2
sgRNA knockout: sgHSF2, 10000 nM | 85.4
sgRNA knockout: sgKEAP1, 10 nM | 90.2
sgRNA knockout: sgKEAP1, 100 nM | 86.9
sgRNA knockout: sgKEAP1, 1000 nM | 95.1
sgRNA knockout: sgKEAP1, 10000 nM | 70.1
sgRNA knockout: sgNFE2L2, 10 nM | 103
sgRNA knockout: sgNFE2L2, 100 nM | 106
sgRNA knockout: sgNFE2L2, 1000 nM | 94.6
sgRNA knockout: sgNFE2L2, 10000 nM | 76.9
sgRNA knockout: sgSLC35F2, 10 nM | 90.1
sgRNA knockout: sgSLC35F2, 100 nM | 91.9
sgRNA knockout: sgSLC35F2, 1000 nM | 87.4
sgRNA knockout: sgSLC35F2, 10000 nM | 84.4
sgRNA knockout: sgXBP1, 10 nM | 87.3
sgRNA knockout: sgXBP1, 100 nM | 96.1
sgRNA knockout: sgXBP1, 1000 nM | 101
sgRNA knockout: sgXBP1, 10000 nM | 68.9

Cc1onc(-c2ccccc2)c1-c1ccc(S(N)(=O)=O)cc1 [Valdecoxib]
Conditions | relative cell number
sgRNA knockout: sgATF3, 10 nM | 108
sgRNA knockout: sgATF3, 100 nM | 96.5
sgRNA knockout: sgATF3, 1000 nM | 96.4
sgRNA knockout: sgATF3, 10000 nM | 98.3
sgRNA knockout: sgATF4, 10 nM | 99.8
sgRNA knockout: sgATF4, 100 nM | 112
sgRNA knockout: sgATF4, 1000 nM | 95.6
sgRNA knockout: sgATF4, 10000 nM | 120
sgRNA knockout: sgATF6, 10 nM | 105
sgRNA knockout: sgATF6, 100 nM | 97.5
sgRNA knockout: sgATF6, 1000 nM | 109
sgRNA knockout: sgATF6, 10000 nM | 112
sgRNA knockout: sgATG7, 10 nM | 95.3
sgRNA knockout: sgATG7, 100 nM | 102
sgRNA knockout: sgATG7, 1000 nM | 102
sgRNA knockout: sgATG7, 10000 nM | 96.5
sgRNA knockout: sgERN1, 10 nM | 92.7
sgRNA knockout: sgERN1, 100 nM | 104
sgRNA knockout: sgERN1, 1000 nM | 110
sgRNA knockout: sgERN1, 10000 nM | 122
sgRNA knockout: sgHSF1, 10 nM | 101
sgRNA knockout: sgHSF1, 100 nM | 118
sgRNA knockout: sgHSF1, 1000 nM | 118
sgRNA knockout: sgHSF1, 10000 nM | 105
sgRNA knockout: sgHSF2, 10 nM | 105
sgRNA knockout: sgHSF2, 100 nM | 91.3
sgRNA knockout: sgHSF2, 1000 nM | 97.5
sgRNA knockout: sgHSF2, 10000 nM | 117
sgRNA knockout: sgKEAP1, 10 nM | 97.9
sgRNA knockout: sgKEAP1, 100 nM | 108
sgRNA knockout: sgKEAP1, 1000 nM | 109
sgRNA knockout: sgKEAP1, 10000 nM | 111
sgRNA knockout: sgNFE2L2, 10 nM | 101
sgRNA knockout: sgNFE2L2, 100 nM | 103
sgRNA knockout: sgNFE2L2, 1000 nM | 98.8
sgRNA knockout: sgNFE2L2, 10000 nM | 114
sgRNA knockout: sgSLC35F2, 10 nM | 101
sgRNA knockout: sgSLC35F2, 100 nM | 112
sgRNA knockout: sgSLC35F2, 1000 nM | 113
sgRNA knockout: sgSLC35F2, 10000 nM | 116
sgRNA knockout: sgXBP1, 10 nM | 96.1
sgRNA knockout: sgXBP1, 100 nM | 100
sgRNA knockout: sgXBP1, 1000 nM | 101
sgRNA knockout: sgXBP1, 10000 nM | 103

CN1C(=O)C(Cc2c[nH]c3ccccc23)NC1=S (configuration not stated) [Necrostatin1]
Conditions | relative cell number
sgRNA knockout: sgATF3, 10 nM | 99.5
sgRNA knockout: sgATF3, 100 nM | 80.2
sgRNA knockout: sgATF3, 1000 nM | 82.3
sgRNA knockout: sgATF3, 10000 nM | 104
sgRNA knockout: sgATF4, 10 nM | 96.9
sgRNA knockout: sgATF4, 100 nM | 93.1
sgRNA knockout: sgATF4, 1000 nM | 110
sgRNA knockout: sgATF4, 10000 nM | 84.1
sgRNA knockout: sgATF6, 10 nM | 84.5
sgRNA knockout: sgATF6, 100 nM | 79.1
sgRNA knockout: sgATF6, 1000 nM | 80.9
sgRNA knockout: sgATF6, 10000 nM | 101
sgRNA knockout: sgATG7, 10 nM | 85.6
sgRNA knockout: sgATG7, 100 nM | 98.7
sgRNA knockout: sgATG7, 1000 nM | 96.4
sgRNA knockout: sgATG7, 10000 nM | 95.8
sgRNA knockout: sgERN1, 10 nM | 93.2
sgRNA knockout: sgERN1, 100 nM | 84.4
sgRNA knockout: sgERN1, 1000 nM | 94.7
sgRNA knockout: sgERN1, 10000 nM | 91.7
sgRNA knockout: sgHSF1, 10 nM | 90.9
sgRNA knockout: sgHSF1, 100 nM | 78.6
sgRNA knockout: sgHSF1, 1000 nM | 90.9
sgRNA knockout: sgHSF1, 10000 nM | 86.8
sgRNA knockout: sgHSF2, 10 nM | 77.2
sgRNA knockout: sgHSF2, 100 nM | 84.1
sgRNA knockout: sgHSF2, 1000 nM | 103
sgRNA knockout: sgHSF2, 10000 nM | 105
sgRNA knockout: sgKEAP1, 10 nM | 95.4
sgRNA knockout: sgKEAP1, 100 nM | 99.1
sgRNA knockout: sgKEAP1, 1000 nM | 93.5
sgRNA knockout: sgKEAP1, 10000 nM | 89.6
sgRNA knockout: sgNFE2L2, 10 nM | 93.8
sgRNA knockout: sgNFE2L2, 100 nM | 79.7
sgRNA knockout: sgNFE2L2, 1000 nM | 98.7
sgRNA knockout: sgNFE2L2, 10000 nM | 107
sgRNA knockout: sgSLC35F2, 10 nM | 83.6
sgRNA knockout: sgSLC35F2, 100 nM | 96.2
sgRNA knockout: sgSLC35F2, 1000 nM | 99.9
sgRNA knockout: sgSLC35F2, 10000 nM | 93
sgRNA knockout: sgXBP1, 10 nM | 106
sgRNA knockout: sgXBP1, 100 nM | 91.1
sgRNA knockout: sgXBP1, 1000 nM | 99.4
sgRNA knockout: sgXBP1, 10000 nM | 105
